Test results reported in PubChem BioAssay AID1794845 (National Center for Advancing Translational Sciences (NCATS), 2023).
The whole screen tested about 6,900 compounds, of which fewer than 10 were called active. Calls come from the whole dose curve; as a rule, active = well fitted curve in the direction sought with a large enough effect; inconclusive = small, poorly fitted or top-dose-only effect, or another doubt; inactive = no such curve, though single readings can be large or run the other way. The list shows a part of the results.

By UniProt entry, the sequences of proteins in these tests, tags left out. Where a name states a change or a piece, a line headed by the entry shows the natural chain unless it says otherwise.
UniProt C7C422: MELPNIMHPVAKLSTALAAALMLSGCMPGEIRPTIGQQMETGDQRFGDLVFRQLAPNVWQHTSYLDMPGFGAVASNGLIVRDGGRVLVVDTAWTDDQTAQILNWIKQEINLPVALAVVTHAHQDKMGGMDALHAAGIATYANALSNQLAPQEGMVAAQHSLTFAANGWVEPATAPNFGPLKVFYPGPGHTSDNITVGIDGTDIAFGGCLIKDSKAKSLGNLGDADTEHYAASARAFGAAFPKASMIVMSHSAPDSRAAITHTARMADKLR

These compounds were tested against Metallo-beta-lactamase type 2 (Klebsiella pneumoniae) (UniProt C7C422) (assay: qHTS to identify inhibitors of the New Delhi Metallo-beta-lactamase (NDM): primary screen against the NCATS Gemini Collection). Conditions: NDM-1 enzyme, meropenem hydrolysis, absorbance 300 nm; at 38.4 µM (top of the series) unless noted.
How it was run: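 Meropenem hydrolysis (50 uM final) by 2 nM NDM-1 read as 300 nm absorbance after 30 min, following >30 min compound–enzyme preincubation in HEPES pH 7.0 with 1 uM ZnSO4 and 0.01% Tween20.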
Note: % of control where 0% means no effect.

Structure (SMILES)	activity % (negative = inhibition)
Cc1nc(Cn2ccnc2-c2cn(C3CCNCC3)nn2)cs1	inactive: 7%
CCc1nc2c(c(-c3ccc(Cl)cc3)n1)CN(Cc1ccccn1)CC2	inactive: 102%
NC(=O)CCNC(=O)C1=C[C@@H](NC(=O)c2cccs2)[C@@H](O)[C@H](O)C1	inactive: 13.3% [at 57.5 µM]
O=C1CCC2(C(=O)NCCN3CCOCC3)CCCC=C2N1C1CCCC1 (stereo not given)	inactive: -0.452%
CCn1c(CO)nnc1C1CC(NC(=O)Cn2ncc3ccccc32)C1 (stereo not given)	inactive: 10.7%
Cn1ccnc1CN1CC2(CCN(C(=O)C3CC3)CC2)CC1C(=O)O (stereo not given)	inactive: 2.78%
Cc1cc(C)n(-c2ccc(C(=O)N[C@H]3C[C@H]4C(=O)NCC(=O)N4C3)cc2)n1	inactive: 0.0135%
CSCCC(=O)N1CCCC1C(=O)Nc1cccc(-n2cccn2)c1 (stereo not given)	inactive: 11.2%
CCN(CCNC(=O)C1CCCCC(=O)N1C)Cc1ccccc1 (stereo not given)	inactive: -8.86%
CCNC(=O)NCCc1noc(-c2ccncc2)n1	inactive: -11%
COC1CCC12CCNCC2 (stereo not given)	inactive: 12%
COc1cccc(C(C)N(C)C(=O)c2cc(Cn3ccnc3C(C)C)[nH]n2)c1 (stereo not given)	inactive: 1.29%
CN(Cc1nc2ccc(F)cc2[nH]1)C(=O)c1cn(CCN)nn1	inactive: -1.18%
CC(=O)N1CCCC(c2nn(-c3ccccn3)c(=O)[nH]2)C1 (stereo not given)	inactive: 8.77% [at 57.5 µM]
CC(=O)N1CCCC1c1nc(C2CN(S(=O)(=O)c3cccc(C)c3)C2)no1 (stereo not given)	inactive: -2.91%
O=S(=O)(NCCn1cc(-c2cncnc2)nn1)c1ccc(Cl)cc1	inactive: 13%
CC(O)C(=O)N1CCc2[nH]nc(C(c3ccccc3)c3ccccc3)c2C1 (stereo not given)	inactive: 4.09%
CN(Cc1cccn1C)C(=O)c1ccccc1	inactive: 0.393% [at 57.5 µM]
CN(C)C[C@@H]1CN(c2ncccn2)C[C@H]1NC(=O)COc1ccc(Cl)cc1	inactive: -6.11%
O=C(Cn1cccn1)N1CC[C@@H]2[C@@H](CCC(=O)N2CCc2cnc[nH]2)C1	inactive: 9.25%
COc1cccc(NC(=O)O[C@@H]2CO[C@H]3[C@@H]2OC[C@@H]3Nc2nccc(-c3ccccc3)n2)c1	inactive: 7.31%
Cc1ccc(CN2CCC(C3CCN(S(C)(=O)=O)CC3)C2)o1 (stereo not given)	inactive: 3.51%
Cc1[nH]nc(C(=O)N[C@@H]2COCC[C@@H]2OCc2ccccc2)c1Cl	inactive: 85.5%
Cn1ncc(N2CCCC(CC(=O)O)C2)cc1=O (stereo not given)	inactive: 56.8%
O=C(NC1CCCN(CCn2nc3n(c2=O)CCCC3)C1)c1ccccc1Cl (stereo not given)	inactive: -2.69%

Part of the list above in order of length of the SMILES, low to high.
Structure (SMILES)	activity % (negative = inhibition)
CCN(CCNC(=O)C1CCCCC(=O)N1C)Cc1ccccc1 (stereo not given)	inactive: -8.86%
CSCCC(=O)N1CCCC1C(=O)Nc1cccc(-n2cccn2)c1 (stereo not given)	inactive: 11.2%
CCn1c(CO)nnc1C1CC(NC(=O)Cn2ncc3ccccc32)C1 (stereo not given)	inactive: 10.7%
Cc1[nH]nc(C(=O)N[C@@H]2COCC[C@@H]2OCc2ccccc2)c1Cl	inactive: 85.5%
NC(=O)CCNC(=O)C1=C[C@@H](NC(=O)c2cccs2)[C@@H](O)[C@H](O)C1	inactive: 13.3% [at 57.5 µM]
